Counter-ions that a name gives are not always drawn. For at least one compound, name, drawing or mass did not settle the structure.
System: histamine
Test: Antagonistic effect on histamine in vitro (isolated guinea-pig ileum)
Settings: histamine 1.0 × 10^-7 g/ml
Description: (5) Antagonistic effect on histamine in vitro
The ileum was connected to a strain gauge transducer and the contractions were recorded isometrically.

O=C(Cn1c(=O)sc2ccc(Cl)cc21)N1CCN(CCO)CC1 [Compound B, 3-[4-(2-hydroxyethyl)-1-piperazinylcarbonylmethyl]-5-chloro-2-benzothiazolinone hydrochloride]
Percentage inhibition of histamin (1.0 × 10^-5 g/ml test compound): 6%
Percentage inhibition of histamin (1.6 × 10^-4 g/ml test compound): 49%
Percentage inhibition of histamin (4.0 × 10^-5 g/ml test compound): 18%
Percentage inhibition of histamin (8.0 × 10^-5 g/ml test compound): 24%

From patent US4279909A, “Antiallergic method” (Fujisawa Pharmaceutical Co., Ltd., priority 1980, dated 1981)
